Data: the supplement of paper PMC11006884
Most of the targets with a hit are listed elsewhere, so they are rarer here than in the full data. This is a noisy data set. Only a part is listed here, and it is no random draw.

The chains behind the UniProt entries cited, without tags or fusion partners. Where a name states a change or a piece, a line headed by the entry shows the natural chain unless it says otherwise.
UniProt O95782: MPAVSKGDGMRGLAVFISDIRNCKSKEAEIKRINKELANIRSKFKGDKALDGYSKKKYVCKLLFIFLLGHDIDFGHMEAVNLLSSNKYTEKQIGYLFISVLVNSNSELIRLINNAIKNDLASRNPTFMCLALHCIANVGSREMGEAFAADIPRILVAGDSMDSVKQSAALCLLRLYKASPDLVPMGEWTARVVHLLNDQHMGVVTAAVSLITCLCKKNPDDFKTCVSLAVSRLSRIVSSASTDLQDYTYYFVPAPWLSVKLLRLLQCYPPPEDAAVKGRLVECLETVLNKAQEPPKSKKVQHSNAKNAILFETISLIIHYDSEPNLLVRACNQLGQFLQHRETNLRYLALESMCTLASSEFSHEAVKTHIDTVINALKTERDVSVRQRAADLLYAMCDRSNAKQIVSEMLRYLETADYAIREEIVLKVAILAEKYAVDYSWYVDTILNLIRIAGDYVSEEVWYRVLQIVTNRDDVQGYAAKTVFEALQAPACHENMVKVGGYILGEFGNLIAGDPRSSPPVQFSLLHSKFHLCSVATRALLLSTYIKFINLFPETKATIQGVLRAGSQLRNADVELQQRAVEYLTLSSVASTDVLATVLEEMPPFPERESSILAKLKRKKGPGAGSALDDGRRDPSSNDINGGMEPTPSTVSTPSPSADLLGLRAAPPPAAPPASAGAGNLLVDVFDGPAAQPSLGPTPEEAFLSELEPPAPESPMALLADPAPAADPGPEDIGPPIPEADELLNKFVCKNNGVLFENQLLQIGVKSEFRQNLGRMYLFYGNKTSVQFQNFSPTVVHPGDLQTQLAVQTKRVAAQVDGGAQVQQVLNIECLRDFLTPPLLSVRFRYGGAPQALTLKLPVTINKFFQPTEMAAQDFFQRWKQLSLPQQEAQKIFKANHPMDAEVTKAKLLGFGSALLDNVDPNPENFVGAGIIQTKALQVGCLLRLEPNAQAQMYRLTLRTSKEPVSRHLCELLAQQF
UniProt P04181: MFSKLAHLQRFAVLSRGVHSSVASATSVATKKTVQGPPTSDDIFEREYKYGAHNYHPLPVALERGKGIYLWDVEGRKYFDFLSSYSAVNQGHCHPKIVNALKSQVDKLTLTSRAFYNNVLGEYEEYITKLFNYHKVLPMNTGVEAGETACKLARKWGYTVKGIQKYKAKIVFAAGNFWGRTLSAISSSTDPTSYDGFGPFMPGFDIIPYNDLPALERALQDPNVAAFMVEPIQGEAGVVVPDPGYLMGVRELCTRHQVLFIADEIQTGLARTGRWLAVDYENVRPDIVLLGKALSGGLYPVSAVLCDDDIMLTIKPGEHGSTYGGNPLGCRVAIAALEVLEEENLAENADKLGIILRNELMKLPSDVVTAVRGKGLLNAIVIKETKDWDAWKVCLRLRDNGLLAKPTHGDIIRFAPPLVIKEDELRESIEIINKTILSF
UniProt P07355, whole entry, looked up: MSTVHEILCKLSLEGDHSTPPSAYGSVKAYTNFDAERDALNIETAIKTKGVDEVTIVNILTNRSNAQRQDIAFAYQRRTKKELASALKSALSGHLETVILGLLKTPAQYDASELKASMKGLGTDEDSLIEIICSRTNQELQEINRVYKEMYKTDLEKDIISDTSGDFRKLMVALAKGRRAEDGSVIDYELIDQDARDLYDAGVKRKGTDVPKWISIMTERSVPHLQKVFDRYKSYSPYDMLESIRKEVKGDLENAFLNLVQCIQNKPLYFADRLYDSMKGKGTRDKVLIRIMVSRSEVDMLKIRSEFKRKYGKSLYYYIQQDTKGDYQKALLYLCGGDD
UniProt O95602, whole entry, looked up: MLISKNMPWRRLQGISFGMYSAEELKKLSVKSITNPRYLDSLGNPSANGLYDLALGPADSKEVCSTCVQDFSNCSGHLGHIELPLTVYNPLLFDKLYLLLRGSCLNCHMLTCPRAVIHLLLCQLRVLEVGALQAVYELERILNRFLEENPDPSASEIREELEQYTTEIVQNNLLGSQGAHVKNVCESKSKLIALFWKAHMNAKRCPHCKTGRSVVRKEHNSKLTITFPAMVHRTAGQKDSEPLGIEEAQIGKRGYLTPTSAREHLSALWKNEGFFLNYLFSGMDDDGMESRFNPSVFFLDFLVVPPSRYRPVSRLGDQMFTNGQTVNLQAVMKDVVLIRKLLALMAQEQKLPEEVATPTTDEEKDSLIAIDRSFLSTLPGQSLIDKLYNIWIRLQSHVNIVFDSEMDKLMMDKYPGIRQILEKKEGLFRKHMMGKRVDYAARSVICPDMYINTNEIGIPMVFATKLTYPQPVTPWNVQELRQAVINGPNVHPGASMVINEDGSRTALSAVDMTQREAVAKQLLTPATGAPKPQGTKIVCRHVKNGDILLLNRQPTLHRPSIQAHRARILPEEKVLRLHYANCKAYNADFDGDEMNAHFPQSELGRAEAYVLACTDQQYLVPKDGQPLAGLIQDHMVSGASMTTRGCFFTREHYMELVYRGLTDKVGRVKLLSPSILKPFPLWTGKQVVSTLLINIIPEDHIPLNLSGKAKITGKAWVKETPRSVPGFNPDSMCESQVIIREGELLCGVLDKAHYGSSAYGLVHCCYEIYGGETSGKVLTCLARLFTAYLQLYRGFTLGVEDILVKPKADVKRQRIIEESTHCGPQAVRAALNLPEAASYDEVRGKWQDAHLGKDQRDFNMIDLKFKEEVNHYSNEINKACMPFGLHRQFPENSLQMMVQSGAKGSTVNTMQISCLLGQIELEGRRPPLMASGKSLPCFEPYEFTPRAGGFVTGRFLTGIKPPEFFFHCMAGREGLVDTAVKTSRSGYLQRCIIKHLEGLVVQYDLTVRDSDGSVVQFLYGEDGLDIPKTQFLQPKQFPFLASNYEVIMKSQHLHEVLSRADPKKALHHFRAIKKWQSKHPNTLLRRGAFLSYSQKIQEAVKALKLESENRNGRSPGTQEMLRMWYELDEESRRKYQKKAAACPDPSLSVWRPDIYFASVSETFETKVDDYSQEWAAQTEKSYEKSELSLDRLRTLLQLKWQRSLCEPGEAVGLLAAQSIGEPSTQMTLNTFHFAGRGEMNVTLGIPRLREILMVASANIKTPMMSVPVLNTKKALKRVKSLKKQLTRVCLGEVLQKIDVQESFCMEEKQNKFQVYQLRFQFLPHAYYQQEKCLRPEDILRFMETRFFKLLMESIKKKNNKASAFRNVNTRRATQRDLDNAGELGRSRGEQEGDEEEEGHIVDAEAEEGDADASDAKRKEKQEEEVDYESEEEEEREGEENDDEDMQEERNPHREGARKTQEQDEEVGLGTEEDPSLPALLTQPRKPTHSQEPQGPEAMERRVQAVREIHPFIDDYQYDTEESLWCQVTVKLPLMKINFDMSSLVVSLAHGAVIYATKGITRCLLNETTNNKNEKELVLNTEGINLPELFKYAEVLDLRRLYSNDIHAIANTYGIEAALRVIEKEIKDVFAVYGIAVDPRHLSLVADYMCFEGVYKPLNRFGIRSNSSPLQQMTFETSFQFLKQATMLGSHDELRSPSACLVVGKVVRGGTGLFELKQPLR
UniProt O96007: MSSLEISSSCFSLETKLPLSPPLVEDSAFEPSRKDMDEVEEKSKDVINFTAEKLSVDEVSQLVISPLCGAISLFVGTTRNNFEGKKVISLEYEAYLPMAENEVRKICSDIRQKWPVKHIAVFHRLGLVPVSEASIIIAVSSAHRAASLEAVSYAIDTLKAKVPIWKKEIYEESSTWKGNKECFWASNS
UniProt P00558: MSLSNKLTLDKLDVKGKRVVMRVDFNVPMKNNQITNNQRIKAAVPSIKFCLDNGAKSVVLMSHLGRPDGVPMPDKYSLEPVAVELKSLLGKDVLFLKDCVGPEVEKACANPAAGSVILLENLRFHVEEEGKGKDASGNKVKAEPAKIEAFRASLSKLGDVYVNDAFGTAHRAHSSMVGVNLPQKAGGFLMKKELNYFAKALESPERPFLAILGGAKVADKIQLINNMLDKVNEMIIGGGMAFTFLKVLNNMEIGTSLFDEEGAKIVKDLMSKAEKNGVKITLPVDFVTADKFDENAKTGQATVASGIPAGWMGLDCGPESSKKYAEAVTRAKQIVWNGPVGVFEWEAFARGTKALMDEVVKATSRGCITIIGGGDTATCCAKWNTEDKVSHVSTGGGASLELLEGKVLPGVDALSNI
UniProt P04183: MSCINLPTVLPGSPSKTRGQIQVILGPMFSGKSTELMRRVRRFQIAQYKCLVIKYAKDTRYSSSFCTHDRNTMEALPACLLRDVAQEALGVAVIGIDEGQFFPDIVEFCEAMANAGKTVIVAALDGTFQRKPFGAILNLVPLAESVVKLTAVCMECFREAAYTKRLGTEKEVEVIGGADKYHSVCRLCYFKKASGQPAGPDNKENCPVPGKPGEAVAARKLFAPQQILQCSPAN
UniProt P04075: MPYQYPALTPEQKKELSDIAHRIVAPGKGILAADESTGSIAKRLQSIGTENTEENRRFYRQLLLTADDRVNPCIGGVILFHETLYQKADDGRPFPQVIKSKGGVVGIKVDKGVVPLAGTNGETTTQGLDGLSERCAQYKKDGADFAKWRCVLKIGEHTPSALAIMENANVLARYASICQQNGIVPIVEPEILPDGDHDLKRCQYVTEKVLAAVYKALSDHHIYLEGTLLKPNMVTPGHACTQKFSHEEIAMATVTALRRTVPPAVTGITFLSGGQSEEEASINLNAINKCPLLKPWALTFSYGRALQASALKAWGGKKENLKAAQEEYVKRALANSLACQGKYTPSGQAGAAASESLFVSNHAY
UniProt P07099: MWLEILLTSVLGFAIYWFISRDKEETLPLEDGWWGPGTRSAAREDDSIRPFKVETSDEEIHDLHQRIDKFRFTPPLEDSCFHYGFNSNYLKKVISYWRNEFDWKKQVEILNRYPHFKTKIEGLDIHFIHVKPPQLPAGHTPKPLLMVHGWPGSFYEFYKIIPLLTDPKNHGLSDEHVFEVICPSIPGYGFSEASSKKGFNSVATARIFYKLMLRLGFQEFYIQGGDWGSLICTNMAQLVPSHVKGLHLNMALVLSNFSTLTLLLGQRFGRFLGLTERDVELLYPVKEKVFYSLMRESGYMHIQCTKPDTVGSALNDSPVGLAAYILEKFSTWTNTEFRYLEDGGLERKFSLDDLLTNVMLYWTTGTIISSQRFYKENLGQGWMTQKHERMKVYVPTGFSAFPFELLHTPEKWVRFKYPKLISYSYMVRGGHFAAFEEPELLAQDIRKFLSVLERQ
UniProt O94927: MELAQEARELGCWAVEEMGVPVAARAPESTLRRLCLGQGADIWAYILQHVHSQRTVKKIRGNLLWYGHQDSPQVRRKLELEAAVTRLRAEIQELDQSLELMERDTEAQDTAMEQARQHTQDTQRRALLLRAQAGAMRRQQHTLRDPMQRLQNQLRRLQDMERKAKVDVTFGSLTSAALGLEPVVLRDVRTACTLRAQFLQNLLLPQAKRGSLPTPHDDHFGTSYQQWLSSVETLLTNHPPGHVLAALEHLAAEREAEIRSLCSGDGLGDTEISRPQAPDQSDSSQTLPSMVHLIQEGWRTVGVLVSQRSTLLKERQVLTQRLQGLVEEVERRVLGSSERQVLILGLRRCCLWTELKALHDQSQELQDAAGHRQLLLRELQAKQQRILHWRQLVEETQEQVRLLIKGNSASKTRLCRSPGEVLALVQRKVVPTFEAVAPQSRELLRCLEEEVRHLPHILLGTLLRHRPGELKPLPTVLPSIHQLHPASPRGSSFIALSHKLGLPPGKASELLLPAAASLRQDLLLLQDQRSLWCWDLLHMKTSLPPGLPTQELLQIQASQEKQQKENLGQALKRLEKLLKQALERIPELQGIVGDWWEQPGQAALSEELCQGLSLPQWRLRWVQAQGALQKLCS
UniProt O95685: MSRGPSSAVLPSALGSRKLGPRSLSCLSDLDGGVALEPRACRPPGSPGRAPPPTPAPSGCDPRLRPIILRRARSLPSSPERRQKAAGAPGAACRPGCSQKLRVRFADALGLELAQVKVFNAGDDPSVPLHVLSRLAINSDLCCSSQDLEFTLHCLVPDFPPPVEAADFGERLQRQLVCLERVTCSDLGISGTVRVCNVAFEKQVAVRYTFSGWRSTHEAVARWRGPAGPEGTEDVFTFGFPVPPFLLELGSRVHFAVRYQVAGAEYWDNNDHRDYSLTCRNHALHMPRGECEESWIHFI
UniProt O94888: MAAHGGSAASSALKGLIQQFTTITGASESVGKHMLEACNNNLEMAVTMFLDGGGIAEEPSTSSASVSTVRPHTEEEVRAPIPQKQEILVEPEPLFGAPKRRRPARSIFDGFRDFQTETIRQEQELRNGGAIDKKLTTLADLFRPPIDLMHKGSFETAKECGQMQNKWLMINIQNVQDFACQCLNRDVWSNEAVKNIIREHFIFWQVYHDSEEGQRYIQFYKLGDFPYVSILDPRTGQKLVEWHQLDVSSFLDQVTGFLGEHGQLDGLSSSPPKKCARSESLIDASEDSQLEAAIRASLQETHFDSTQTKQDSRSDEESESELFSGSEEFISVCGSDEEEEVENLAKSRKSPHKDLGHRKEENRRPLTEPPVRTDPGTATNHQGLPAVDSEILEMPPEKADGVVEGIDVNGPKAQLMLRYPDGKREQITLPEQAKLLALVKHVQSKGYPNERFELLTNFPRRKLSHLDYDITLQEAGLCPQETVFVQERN

The targets below were run with COC(=O)/C=C/c1ccccc1 [methyl cinnamate] (assay: log2 ratio of iodoacetamide-alkyne labeling of the cysteine site, DMSO over compound (competition); higher = stronger covalent engagement of the cysteine by the compound, active = 1 or more). Conditions: 500 µM; treatment time 1 h; system: HEK293T cell lysate.
How it was run: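 Three replicates, each with duplicate channels, were prepared from HEK293T lysate (2 mg/mL) treated with vehicle or electrophile at 500 µM for 1 h at ambient temperature. Iodoacetamide alkyne was then applied for 1 h, and samples were clicked to sCIP-TMT reagents, pooled, trypsin-digested overnight at 37 °C, enriched on streptavidin, acid-eluted and analysed on Orbitrap Eclipse LC-MS/MS with FAIMS, with FragPipe quantification. The log2 competition ratio per cysteine is the mean control-channel divided by the mean compound-channel reporter intensity. Cysteines quantified in only one replicate were left out.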

log2 ratio of iodoacetamide-alkyne labeling, inactive:
GPX1 C115 (UniProt P07203) -0.0233
AP2A1 C492 (UniProt O95782) 0.0211
OAT C253 (UniProt P04181) -0.34
PARN C169 (UniProt O95453) 0.33
GAPDH C247 (UniProt P04406) -0.00382
ANXA2 C9 (UniProt P07355) 0.052
POLR1A C937 (UniProt O95602) -0.127
PGLS C32 (UniProt O95336) 0.275
MOCS2 C10 (UniProt O96007) 0.00812
AIFM1 C256 (UniProt O95831) 0.0597
GAPDH C152 (UniProt P04406) 0.139
UniProt O95232_C58 0.274
PGK1 C50 (UniProt P00558) 0.277
POLR1A C613 (UniProt O95602) 0.216
SMC2 C132 (UniProt O95347) -0.0562
TK1 C230 (UniProt P04183) -0.148
UniProt O95478_C154 0.162
HEXIM1 C79 (UniProt O94992) 0.213
PGK1 C379 (UniProt P00558) 0.0185
CSTB C3 (UniProt P04080) 0.273
LDHA C293 (UniProt P00338) -0.186
POLR1A C446 (UniProt O95602) -0.149
IPO7 C415 (UniProt O95373) -0.018
ALDOA C178 (UniProt P04075) 0.206
EPHX1 C80 (UniProt P07099) -0.141
UniProt O94927_C35 -0.0362
ACSL3 C450 (UniProt O95573) 0.0373
PRPF6 C429 (UniProt O94906) 0.445
SASH1 C822 (UniProt O94885) 0.3
PPP1R3D C291 (UniProt O95685) 0.000283
PRPF6 C550 (UniProt O94906) 0.13
UniProt O94822_C186 0.0111
UniProt P04439_C227 0.137
ZRANB2 C88 (UniProt O95218) 0.153
MAP4K4 C883 (UniProt O95819) -0.0119
UBXN7 C478 (UniProt O94888) -0.0591
GSR C107 (UniProt P00390) 0.0491

Reprinted at random: 3 entries already listed.
log2 ratio of iodoacetamide-alkyne labeling, inactive:
ALDOA C178 (UniProt P04075) 0.206
ANXA2 C9 (UniProt P07355) 0.052
PARN C169 (UniProt O95453) 0.33
